# Values quoted from earlier work as cited in US20240180838A1, “NANOPARTICLE (NP) COMPOSITIONS AND METHODS OF USE THEREOF” (RUTGERS, THE STATE UNIVERSITY OF NEW JERSEY, priority 2022, published 2024).
# At least one structure is not confirmed: it was looked up by name or label, or the drawing left a doubt.
# Test system: S. aureus
# Conditions: as reported in the literature; cited from earlier work
structure (smiles),measurement,value
"CCC[C@@H]1C[C@@H](C(=O)N[C@@H]([C@H]2O[C@H](SC)[C@H](O)[C@@H](O)[C@H]2O)[C@H](C)Cl)N(C)C1 [CDM, clindamycin]",Minimum inhibitory concentrations (MICs),0.19 µg/mL
